Measurements reported in PMC3741180, “A Novel High Throughput Biochemical Assay to Evaluate the HuR Protein-RNA Complex Formation” (PLoS ONE, 2013).
For at least one entry, the source does not settle the construct or the ends of the probe. For some assays here: At least one verdict was read from the data and is not stated in words by the source.

The chains behind the UniProt entries cited, without tags or fusion partners.
UniProt Q15717, whole entry: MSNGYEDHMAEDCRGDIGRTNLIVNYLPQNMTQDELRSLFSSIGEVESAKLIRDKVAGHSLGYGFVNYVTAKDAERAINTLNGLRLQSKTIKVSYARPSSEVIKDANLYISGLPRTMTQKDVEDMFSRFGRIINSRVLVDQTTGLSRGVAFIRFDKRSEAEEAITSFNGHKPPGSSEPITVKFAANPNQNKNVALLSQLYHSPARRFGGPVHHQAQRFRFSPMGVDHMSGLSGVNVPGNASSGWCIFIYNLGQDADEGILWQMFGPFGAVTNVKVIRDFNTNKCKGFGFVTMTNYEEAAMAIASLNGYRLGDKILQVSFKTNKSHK

Columns and labels:
[1] = target: rHuR (HuR-Myc-His) (Homo sapiens) (UniProt Q15717); test: EMSA; details: 0.2 uM rHuR, 0.5 uM probe, complex influenced by mitoxantrone and cetylpyridinium chloride (0.5 uM), AlphaScreen: 25 mM HEPES pH 7.4, 100 mM NaCl, 0.1% BSA, room temperature, REMSA: 20 mM HEPES pH 7.5, 50 mM KCl, 0.5 ug BSA, 0.25% glycerol, recombinant protein, residues 1-326, protein details: C-terminal c-Myc and His6, label: 5'-biotin
[2] = target: P-rHuR (phosphorylated rHuR) (Homo sapiens) (UniProt Q15717); test: AlphaScreen saturation binding; details: CsA-induced phosphorylation, not different from rHuR (P=0.59), AlphaScreen: 25 mM HEPES pH 7.4, 100 mM NaCl, 0.1% BSA, room temperature, REMSA: 20 mM HEPES pH 7.5, 50 mM KCl, 0.5 ug BSA, 0.25% glycerol, recombinant protein, residues 1-326, protein details: C-terminal c-Myc and His6, label: 5'-biotin

AUUAUUUAUUAUUUAUUUAUUAUUUA [Bi-TNF]
binding result [1]: binds
Kd [2]: 3.1 nM
